Results taken from paper PMC4838878.
Results are given in words; binding and its absence hold for the method and conditions named. Binding can be weak; no strength is given.

By UniProt entry, the sequences of proteins in these tests, tags left out. Where a name states a change or a piece, a line headed by the entry shows the natural chain unless it says otherwise.
UniProt Q6UXZ4: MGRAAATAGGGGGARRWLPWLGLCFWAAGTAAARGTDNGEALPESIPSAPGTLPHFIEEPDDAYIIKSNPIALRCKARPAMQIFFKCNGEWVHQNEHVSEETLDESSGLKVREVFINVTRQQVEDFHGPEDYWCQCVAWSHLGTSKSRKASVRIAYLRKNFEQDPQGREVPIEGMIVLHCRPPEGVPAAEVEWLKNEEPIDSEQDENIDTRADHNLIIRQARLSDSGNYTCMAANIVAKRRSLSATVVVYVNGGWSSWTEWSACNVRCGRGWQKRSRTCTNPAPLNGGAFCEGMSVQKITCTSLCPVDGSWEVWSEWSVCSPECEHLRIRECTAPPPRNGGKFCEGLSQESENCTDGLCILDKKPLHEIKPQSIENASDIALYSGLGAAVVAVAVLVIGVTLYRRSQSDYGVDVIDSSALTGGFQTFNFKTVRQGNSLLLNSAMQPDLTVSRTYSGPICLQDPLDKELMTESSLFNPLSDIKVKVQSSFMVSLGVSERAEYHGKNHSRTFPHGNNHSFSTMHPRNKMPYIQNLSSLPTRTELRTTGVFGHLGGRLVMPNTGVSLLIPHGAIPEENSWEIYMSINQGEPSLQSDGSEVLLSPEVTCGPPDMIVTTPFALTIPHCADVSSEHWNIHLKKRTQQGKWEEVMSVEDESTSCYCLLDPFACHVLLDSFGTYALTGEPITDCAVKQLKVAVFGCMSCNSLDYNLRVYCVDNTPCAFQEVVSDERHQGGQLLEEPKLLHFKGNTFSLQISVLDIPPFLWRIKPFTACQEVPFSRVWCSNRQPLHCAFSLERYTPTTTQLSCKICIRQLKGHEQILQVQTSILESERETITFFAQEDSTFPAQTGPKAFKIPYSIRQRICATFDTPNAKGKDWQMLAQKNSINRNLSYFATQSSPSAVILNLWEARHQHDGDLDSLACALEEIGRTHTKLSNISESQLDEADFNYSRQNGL

Target: T1, mouse FLRT2 ectodomain (FLRT2^ecto), ITC construct (mouse) (UniProt Q8BLU0)
T1 sequence: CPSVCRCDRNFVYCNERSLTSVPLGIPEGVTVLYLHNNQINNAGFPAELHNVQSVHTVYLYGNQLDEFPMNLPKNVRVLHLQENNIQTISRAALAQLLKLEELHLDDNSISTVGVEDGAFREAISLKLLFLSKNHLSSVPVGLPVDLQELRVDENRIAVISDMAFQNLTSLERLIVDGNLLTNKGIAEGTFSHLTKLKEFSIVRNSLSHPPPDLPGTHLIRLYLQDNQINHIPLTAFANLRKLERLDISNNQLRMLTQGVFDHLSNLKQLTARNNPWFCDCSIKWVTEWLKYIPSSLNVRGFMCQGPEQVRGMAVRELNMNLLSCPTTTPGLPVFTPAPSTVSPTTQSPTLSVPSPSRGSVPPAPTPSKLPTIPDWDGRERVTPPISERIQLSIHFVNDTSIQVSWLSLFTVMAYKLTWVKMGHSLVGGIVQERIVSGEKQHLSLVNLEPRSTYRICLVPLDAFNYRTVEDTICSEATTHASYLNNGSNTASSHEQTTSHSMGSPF
Experiment: ITC; MicroCal iTC200, 25 °C; 100 μM protein in the syringe, 10 μM in the cell; for the triple complex FLRT2^ecto+Lphn3^Olf in the cell and Unc5D^ecto injected; single-site model; both purified

binding: binds
Substance: Unc5D ectodomain (Unc5D^ecto), ITC construct (from UniProt Q6UXZ4) (domain or fragment)
